Reference: patent US8022102B2, “Unsaturated tetracyclic tetrahydrofuran derivatives” (Janssen Pharmaceutica, NV, priority 2004, dated 2011)

The chains behind the UniProt entries cited, without tags or fusion partners. Residues count along the entry.
UniProt Q9WTR4, 1-597: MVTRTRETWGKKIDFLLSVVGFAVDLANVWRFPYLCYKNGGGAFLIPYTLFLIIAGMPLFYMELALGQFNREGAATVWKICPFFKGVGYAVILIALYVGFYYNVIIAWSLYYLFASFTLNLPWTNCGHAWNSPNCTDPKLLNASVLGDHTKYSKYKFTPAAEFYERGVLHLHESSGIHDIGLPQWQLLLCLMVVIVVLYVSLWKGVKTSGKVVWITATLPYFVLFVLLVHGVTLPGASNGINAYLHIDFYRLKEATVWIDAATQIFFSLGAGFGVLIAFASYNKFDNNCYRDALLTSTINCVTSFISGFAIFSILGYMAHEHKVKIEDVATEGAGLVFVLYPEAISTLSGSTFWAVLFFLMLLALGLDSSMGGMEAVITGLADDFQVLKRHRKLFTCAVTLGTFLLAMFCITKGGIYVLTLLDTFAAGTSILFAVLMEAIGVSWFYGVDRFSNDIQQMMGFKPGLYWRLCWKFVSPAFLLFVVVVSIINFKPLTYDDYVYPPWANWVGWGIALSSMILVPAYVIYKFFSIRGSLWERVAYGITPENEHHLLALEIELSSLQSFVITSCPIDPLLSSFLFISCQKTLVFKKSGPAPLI

Biological target: T1, NET (Rattus norvegicus, UniProt Q9WTR4)
T1 construct: Cortex from rat brain was collected and homogenised; from tissue; host or cells: rat brain cortex
Assay: In vitro determination of NET reuptake inhibition ([3H]Nixosetine binding, rat brain cortex)
Protocol: Cortex from rat brain was collected and homogenised using an Ultra-Turrax T25 and a Dual homogeniser in ice-cold homogenising buffer containing Tris, NaCl and KCl (50 mM, 120 mM and 5 mM, respectively, pH 7.4) prior to dilution to an appropriate protein concentration optimised for specific and non-specific binding. […] Membrane-bound activity was detected by filtration through a Packard Filtermate harvester onto GF/B Unifilterplates, washed with ice-cold Tris-HCl buffer, containing NaCl and KCl (50 mM, 120 mM and 4 mM; pH 7.4; 6×0.5 ml). Filters were allowed to dry for 24 h before adding scintillation fluid. Scintillation fluid was allowed to saturate filters for 24 h before counting in a Topcount scintillation counter. Percentage specific bound and competition binding curves were calculated using S-Plus software (Insightful).

CN(CC(=O)N(C)C)C[C@H]1CC2=C(O1)c1cc(F)ccc1Cc1ccccc12 [Compound 117]
IC50: 0.794 µM
